From patent US20100317723

By UniProt entry, the sequences of proteins in these tests, tags left out. Residues count along the entry.
UniProt P19338, 2-710: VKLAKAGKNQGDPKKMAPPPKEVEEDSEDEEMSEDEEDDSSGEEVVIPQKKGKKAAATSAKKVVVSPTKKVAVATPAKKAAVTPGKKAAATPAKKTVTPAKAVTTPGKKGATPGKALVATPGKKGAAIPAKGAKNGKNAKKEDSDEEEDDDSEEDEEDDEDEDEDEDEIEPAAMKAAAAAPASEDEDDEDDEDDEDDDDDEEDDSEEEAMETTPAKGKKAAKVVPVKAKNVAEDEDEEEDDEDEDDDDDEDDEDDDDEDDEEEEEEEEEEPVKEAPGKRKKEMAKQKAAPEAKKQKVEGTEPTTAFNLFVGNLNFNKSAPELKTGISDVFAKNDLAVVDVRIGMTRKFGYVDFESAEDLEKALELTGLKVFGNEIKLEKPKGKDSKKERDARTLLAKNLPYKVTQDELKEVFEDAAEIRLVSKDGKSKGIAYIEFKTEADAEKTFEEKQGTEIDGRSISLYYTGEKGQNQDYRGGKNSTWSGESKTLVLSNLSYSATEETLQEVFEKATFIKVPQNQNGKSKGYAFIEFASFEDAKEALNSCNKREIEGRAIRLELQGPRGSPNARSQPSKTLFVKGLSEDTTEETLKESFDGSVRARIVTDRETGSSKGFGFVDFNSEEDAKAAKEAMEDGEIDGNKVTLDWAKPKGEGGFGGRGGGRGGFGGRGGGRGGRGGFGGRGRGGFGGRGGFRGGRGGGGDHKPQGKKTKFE
UniProt P13383, whole entry: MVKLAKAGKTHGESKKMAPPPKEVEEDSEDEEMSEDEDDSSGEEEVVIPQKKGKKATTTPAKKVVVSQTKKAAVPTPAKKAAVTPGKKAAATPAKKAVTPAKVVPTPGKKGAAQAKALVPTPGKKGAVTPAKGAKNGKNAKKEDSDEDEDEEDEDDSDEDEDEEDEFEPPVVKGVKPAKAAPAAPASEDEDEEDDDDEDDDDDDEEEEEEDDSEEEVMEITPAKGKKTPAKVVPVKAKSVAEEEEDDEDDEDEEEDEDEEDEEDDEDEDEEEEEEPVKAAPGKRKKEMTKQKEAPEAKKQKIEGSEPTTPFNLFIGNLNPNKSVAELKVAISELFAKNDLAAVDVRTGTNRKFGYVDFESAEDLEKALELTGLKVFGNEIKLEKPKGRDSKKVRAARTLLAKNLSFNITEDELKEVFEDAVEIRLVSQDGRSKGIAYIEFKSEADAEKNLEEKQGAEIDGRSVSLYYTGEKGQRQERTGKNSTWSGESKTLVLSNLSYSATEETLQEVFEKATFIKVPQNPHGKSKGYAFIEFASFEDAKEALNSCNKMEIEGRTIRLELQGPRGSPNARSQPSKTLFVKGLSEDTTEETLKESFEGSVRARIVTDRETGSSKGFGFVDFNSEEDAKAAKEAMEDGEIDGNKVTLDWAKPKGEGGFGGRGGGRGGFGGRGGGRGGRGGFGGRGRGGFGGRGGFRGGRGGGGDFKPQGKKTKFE

Columns and labels:
[1] = target: Nucleolin (cell-surface, human cancer cell lines) (UniProt P19338); test: flow cytometry; settings: protein on the cell surface, label: 5'-Cy3, single-stranded DNA
[2] = target: Nucleolin (cell-surface, C6 rat glioma cells) (UniProt P13383); test: binding assay; settings: protein on the cell surface, protein details: endogenous on C6 cells (ATCC), label: 5'-Cy3, single-stranded DNA, variant of GRO29A (Cy3-1641-3)
[3] = target: Nucleolin (cell-surface, human cancer cell lines) (UniProt P19338); test: binding assay; settings: HeLa cells; no significant fluorescent signal; protein on the cell surface; label: 5'-Cy3; single-stranded DNA; variant of GRO29A (Cy3-1641-3)
[4] = target: Nucleolin (cell-surface, human cancer cell lines) (UniProt P19338); test: activity in cells; settings: NapdU at T12, T13; 4 uM, MDA-MB231 viability; higher inhibition than AS1411; protein on the cell surface; single-stranded DNA; variant of AS1411 (Cy3-1642-80)

GGTGGTGGTGGTTGTGGTGGTGGTGG [1642-119]: binds ([1]; BzdU at T9, T12, T13, increased versus AS1411, similar to central double modification, variant of AS1411 (Cy3-1642-80)).
TTTGGTGGTGGTGGTTGTGGTGGTGGTGG [1642-72]: binds ([2]; NapdU at T1, T3, T15, T16, C6 cell fluorescence, better than GRO29A).
GGTGGTGGTGGTTGTGGTGGTGGTGG [1642-162]: binds ([1]; NapdU at T12, T13, T15, increased versus AS1411, similar to central double modification, variant of AS1411 (Cy3-1642-80)).
GGTGGTGGTGGTTGTGGTGGTGGTGG [1642-160]: binds ([1]; NapdU at T12, T13, T24, increased versus AS1411, similar to central double modification, variant of AS1411 (Cy3-1642-80)).
GGTGGTGGTGGTTGTGGTGGTGGTGG [1642-88]: binds ([1]; BzdU at all T (3, 6, 9, 12, 13, 15, 18, 21, 24), increased versus AS1411 on various cancer cell lines, HBSS, ice, variant of AS1411 (Cy3-1642-80)).
GGTGGTGGTGGTTGTGGTGGTGGTGG [1642-210]: binds ([1]; 4-PBdU at T9, T12, T13, increased versus AS1411, similar to central double modification, variant of AS1411 (Cy3-1642-80)).
“TTTCCTCCTCCTCCTTCTCCTCCTCCTCC [CRO29A (Cy3-1641-8)]”: no binding [3]; no binding ([2]; not clearly visualized in C6 cells by confocal, 20 nM, negative control).
TTTGGTGGTGGTGGTTGTGGTGGTGGTGG [1642-71]: binds ([2]; NapdU at T2, T3, T15, T16, C6 cell fluorescence, better than GRO29A).
TTTGGTGGTGGTGGTTGTGGTGGTGGTGG [1642-70]: binds ([2]; NapdU at T1, T15, T16, C6 cell fluorescence, better than GRO29A).
With GGTGGTGGTGGTTGTGGTGGTGGTGG [1642-161] the “functional effect of the aptamer” value [4] was “active” and the binding result ([1]; NapdU at T12, T13, increased versus AS1411 on various cancer cell lines, HBSS, ice, variant of AS1411 (Cy3-1642-80)) was “binds”.
GGTGGTGGTGGTTGTGGTGGTGGTGG [1642-165]: binds ([1]; NapdU at T9, T12, T13, increased versus AS1411, similar to central double modification, variant of AS1411 (Cy3-1642-80)).
GGTGGTGGTGGTTGTGGTGGTGGTGG [1642-132]: binds ([1]; NapdU at all T (3, 6, 9, 12, 13, 15, 18, 21, 24), increased versus AS1411 on various cancer cell lines, HBSS, ice, variant of AS1411 (Cy3-1642-80)).
GGTGGTGGTGGTTGTGGTGGTGGTGG [1642-115]: binds ([1]; BzdU at T12, T13, increased versus AS1411 on various cancer cell lines, HBSS, ice, variant of AS1411 (Cy3-1642-80)).
GGTGGTGGTGGTTGTGGTGGTGGTGG [1642-121]: binds ([1]; BzdU at T3, T12, T13, increased versus AS1411, similar to central double modification, variant of AS1411 (Cy3-1642-80)).
TTTGGTGGTGGTGGTTGTGGTGGTGGTGG [1642-73]: binds ([2]; NapdU at T1, T2, T3, T15, T16, C6 cell fluorescence, better than GRO29A).
GGTGGTGGTGGTTGTGGTGGTGGTGG [1642-207]: binds ([1]; 4-PBdU at T12, T13, T15, increased versus AS1411, similar to central double modification, variant of AS1411 (Cy3-1642-80)).
GGTGGTGGTGGTTGTGGTGGTGGTGG [1642-116]: binds ([1]; BzdU at T12, T13, T15, increased versus AS1411, similar to central double modification, variant of AS1411 (Cy3-1642-80)).
GGTGGTGGTGGTTGTGGTGGTGGTGG [1642-167]: binds ([1]; NapdU at T3, T12, T13, increased versus AS1411, similar to central double modification, variant of AS1411 (Cy3-1642-80)).
“GGTGGTGGTGGTTGTGGTGGTGGTGG [AS1411 (Cy3-1642-80)]”: binds ([1]; human cancer cell lines, 100 pmol in 200 uL HBSS on ice, reference).
GGTGGTGGTGGTTGTGGTGGTGGTGG [1642-206]: binds ([1]; 4-PBdU at T12, T13, increased versus AS1411, variant of AS1411 (Cy3-1642-80)).
GGTGGTGGTGGTTGTGGTGGTGGTGG [1642-212]: binds ([1]; 4-PBdU at T3, T12, T13, increased versus AS1411, similar to central double modification, variant of AS1411 (Cy3-1642-80)).
GGTGGTGGTGGTTGTGGTGGTGGTGG [1642-205]: binds ([1]; 4-PBdU at T12, T13, T24, increased versus AS1411, similar to central double modification, variant of AS1411 (Cy3-1642-80)).
GGTGGTGGTGGTTGTGGTGGTGGTGG [1642-114]: binds ([1]; BzdU at T12, T13, T24, increased versus AS1411, similar to central double modification, variant of AS1411 (Cy3-1642-80)).
GGTGGTGGTGGTTGTGGTGGTGGTGG [1642-177]: binds ([1]; 4-PBdU at all T (3, 6, 9, 12, 13, 15, 18, 21, 24), increased versus AS1411, variant of AS1411 (Cy3-1642-80)).

For some assays here: Results from cells or extracts need not show a direct contact. For some assays here: Negatives hold for the conditions tested.
